The values below are quoted from earlier work in patent US20120245230A1, “METHOD AND COMPOSITION FOR PREPARING STABLE LIQUID FORMULATIONS OF PARACETAMOL” (TECNIMEDE-SOCIEDADE TECNICO- MEDICINAL, S.A., priority 2009, published 2012).

For `CC(=O)Nc1ccc(O)cc1` [Paracetamol], the Solubility in water result is “very slightly soluble in water”.
